Source: patent US20210386754A1, “COMPOSITIONS AND METHODS FOR TREATING ATHEROSCLEROTIC VASCULAR DISEASE” (AUGUSTA UNIVERSITY RESEARCH INSTITUTE, INC., priority 2020, published 2021)

Legend:
[1] = system: hypercholesterolemic mice (PCSK9-AAV-mediated LDLR knockdown); assay: Atherosclerosis model: PCSK9-AAV, partial LCA ligation, Western diet; assay type: in vivo, mouse
THP-1 macrophages = assay: LDL oxidation by agarose gel electrophoresis of conditioned media; assay type: cell-based, human; settings: M-CSF 100 ng/mL or PDGF 200 ng/mL, 50 μg/mL nLDL, 24 hours

Molecule	relative electrophoretic mobility (REM) of LDL from conditioned media vs negative control nLDL (THP-1 macrophages)	other results
CN(C)CCCN1c2ccccc2CCc2ccccc21 [imipramine]	–	total cholesterol levels ([1]; imipramine-treated vs control mice): no significant differences
PDGF	not different	–
CCN(c1nc(N)c(C(=O)N=C(N)N)nc1Cl)C(C)C [EIPA, 5-(N-ethyl-N-isopropyl)amiloride]	–	Plasma cholesterol levels ([1]; EIPA vs vehicle, WT and CD36-/-/SR-A-/- mice): not different
M-CSF: macrophage colony-stimulating factor, physiological stimulator of macropinocytosis (protein, UniProt P09603 33-554, looked up) Macrophage colony-stimulating …: EEVSEYCSHMIGSGHLQSLQRLIDSQMETSCQITFEFVDQEQLKDPVCYLKKAFLLVQDIMEDTMRFRDNTPNAIAIVQLQELSLRLKSCFTKDYEEHDKACVRTFYETPLQLLEKVKNVFNETKNLLDKDWNIFSKNCNNSFAECSSQDVVTKPDCNCLYPKAIPSSDPASVSPHQPLAPSMAPVAGLTWEDSEGTEGSSLLPGEQPLHTVDPGSAKQRPPRSTCQSFEPPETPVVKDSTIGGSPQPRPSVGAFNPGMEDILDSAMGTNWVPEEASGEASEIPVPQGTELSPSRPGGGSMQTEPARPSNFLSASSPLPASAKGQQPADVTGTALPRVGPVRPTGQDWNHTPQKTDHPSALLRDPPEPGSPRISSLRPQGLSNPSTLSAQPQLSRSHSSGSVLPLGELEGRRSTRDRRSPAEPEGGPASEGAARPLPRFNSVPLTDTGHERQSEGSFSPQLQESVFHLLVPSVILVLLAVGGLLFYRWRRRSHQEPQRADSPLEQPEGSPLTQDDRQVELPV	not different	–
